# Measurements as given in the supplement of paper PMC12823440, “Inhibitors supercharge kinase turnover through native proteolytic circuits” (Nature, 2025).
# Chains of the proteins cited; added tags and fusions are not shown. Lines headed by an entry give the natural chain unless they say otherwise; changes in a name come on top.
# UniProt Q06187: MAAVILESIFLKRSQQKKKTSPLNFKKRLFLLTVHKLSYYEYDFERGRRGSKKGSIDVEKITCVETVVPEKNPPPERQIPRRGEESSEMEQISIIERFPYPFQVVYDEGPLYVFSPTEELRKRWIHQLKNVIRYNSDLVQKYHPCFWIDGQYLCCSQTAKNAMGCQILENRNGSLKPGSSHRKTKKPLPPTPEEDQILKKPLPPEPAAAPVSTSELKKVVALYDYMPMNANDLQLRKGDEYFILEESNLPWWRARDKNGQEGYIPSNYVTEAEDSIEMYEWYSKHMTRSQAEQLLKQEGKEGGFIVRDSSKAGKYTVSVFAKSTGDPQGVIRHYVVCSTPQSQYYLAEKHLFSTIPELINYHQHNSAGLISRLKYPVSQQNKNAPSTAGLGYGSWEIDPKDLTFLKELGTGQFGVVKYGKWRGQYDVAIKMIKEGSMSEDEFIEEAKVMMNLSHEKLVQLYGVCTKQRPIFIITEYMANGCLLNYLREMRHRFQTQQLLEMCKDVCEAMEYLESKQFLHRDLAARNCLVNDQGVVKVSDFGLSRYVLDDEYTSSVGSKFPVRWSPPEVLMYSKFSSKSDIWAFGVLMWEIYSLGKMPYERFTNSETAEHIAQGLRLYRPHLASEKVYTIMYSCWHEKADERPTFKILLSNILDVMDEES
# UniProt Q9UQM7, whole entry: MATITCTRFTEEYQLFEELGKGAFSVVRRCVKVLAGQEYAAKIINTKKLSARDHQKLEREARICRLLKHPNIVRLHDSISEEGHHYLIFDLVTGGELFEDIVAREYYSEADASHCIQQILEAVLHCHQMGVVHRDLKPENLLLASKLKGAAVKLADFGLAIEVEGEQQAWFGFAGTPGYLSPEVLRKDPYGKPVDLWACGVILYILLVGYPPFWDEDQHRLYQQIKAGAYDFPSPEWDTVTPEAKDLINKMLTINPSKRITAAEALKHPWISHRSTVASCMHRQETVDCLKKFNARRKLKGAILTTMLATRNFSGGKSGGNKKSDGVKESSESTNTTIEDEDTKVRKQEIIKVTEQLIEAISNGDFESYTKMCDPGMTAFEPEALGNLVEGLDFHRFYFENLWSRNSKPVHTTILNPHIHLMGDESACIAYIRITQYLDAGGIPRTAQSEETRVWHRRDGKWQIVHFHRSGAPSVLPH
# UniProt Q00526: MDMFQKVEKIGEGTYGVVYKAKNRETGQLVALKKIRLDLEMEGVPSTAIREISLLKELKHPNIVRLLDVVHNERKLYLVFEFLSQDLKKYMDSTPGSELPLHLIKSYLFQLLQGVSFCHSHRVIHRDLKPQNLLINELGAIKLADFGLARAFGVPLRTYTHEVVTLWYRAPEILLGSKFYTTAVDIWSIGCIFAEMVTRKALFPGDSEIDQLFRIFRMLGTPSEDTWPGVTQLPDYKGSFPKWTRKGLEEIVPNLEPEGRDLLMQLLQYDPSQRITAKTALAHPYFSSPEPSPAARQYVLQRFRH
# UniProt P11802: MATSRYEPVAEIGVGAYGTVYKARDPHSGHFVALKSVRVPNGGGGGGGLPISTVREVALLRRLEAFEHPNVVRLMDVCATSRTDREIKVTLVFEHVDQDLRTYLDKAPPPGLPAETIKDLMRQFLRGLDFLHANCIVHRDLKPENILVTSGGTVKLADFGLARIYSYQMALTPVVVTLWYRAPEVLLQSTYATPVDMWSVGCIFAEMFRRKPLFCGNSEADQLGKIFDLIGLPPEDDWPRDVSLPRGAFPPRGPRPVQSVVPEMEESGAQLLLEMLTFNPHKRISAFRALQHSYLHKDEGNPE
# UniProt Q00535, whole entry, looked up: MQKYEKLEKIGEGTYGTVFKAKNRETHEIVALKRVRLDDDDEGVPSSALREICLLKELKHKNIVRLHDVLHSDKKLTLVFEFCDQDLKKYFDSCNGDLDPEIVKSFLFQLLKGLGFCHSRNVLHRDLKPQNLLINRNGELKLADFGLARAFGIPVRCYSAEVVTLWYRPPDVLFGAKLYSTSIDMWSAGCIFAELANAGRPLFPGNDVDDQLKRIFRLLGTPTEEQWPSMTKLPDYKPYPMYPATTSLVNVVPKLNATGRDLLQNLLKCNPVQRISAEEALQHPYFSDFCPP
# UniProt Q00534, whole entry: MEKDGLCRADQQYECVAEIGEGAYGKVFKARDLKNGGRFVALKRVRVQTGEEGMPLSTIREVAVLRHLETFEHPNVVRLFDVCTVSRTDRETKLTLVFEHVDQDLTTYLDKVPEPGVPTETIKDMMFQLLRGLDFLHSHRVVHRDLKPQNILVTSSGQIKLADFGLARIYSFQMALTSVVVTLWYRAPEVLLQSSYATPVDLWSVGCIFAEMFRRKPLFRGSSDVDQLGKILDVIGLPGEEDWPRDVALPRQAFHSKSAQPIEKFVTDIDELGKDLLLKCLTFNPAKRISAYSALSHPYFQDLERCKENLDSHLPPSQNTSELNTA
# UniProt P50613: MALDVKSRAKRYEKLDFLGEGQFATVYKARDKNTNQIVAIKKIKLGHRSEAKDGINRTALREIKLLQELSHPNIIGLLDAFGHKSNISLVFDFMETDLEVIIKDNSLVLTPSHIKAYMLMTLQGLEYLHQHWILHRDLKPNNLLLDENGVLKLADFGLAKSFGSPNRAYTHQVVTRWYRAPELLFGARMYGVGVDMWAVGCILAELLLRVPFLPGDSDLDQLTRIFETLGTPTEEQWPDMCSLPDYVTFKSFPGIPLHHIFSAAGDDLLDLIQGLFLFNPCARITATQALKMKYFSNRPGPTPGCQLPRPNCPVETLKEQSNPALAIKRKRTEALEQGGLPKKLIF
# UniProt P50750, whole entry: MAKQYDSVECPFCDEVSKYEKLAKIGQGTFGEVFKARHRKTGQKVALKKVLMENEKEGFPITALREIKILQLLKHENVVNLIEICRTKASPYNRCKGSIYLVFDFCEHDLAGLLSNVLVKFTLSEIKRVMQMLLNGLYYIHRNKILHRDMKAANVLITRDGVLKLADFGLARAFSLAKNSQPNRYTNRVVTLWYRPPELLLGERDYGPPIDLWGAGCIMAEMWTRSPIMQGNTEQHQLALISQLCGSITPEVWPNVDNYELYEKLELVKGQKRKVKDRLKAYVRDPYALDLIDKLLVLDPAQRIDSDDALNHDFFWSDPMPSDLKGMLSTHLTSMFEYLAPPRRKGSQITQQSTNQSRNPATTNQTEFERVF
# UniProt O96017, whole entry: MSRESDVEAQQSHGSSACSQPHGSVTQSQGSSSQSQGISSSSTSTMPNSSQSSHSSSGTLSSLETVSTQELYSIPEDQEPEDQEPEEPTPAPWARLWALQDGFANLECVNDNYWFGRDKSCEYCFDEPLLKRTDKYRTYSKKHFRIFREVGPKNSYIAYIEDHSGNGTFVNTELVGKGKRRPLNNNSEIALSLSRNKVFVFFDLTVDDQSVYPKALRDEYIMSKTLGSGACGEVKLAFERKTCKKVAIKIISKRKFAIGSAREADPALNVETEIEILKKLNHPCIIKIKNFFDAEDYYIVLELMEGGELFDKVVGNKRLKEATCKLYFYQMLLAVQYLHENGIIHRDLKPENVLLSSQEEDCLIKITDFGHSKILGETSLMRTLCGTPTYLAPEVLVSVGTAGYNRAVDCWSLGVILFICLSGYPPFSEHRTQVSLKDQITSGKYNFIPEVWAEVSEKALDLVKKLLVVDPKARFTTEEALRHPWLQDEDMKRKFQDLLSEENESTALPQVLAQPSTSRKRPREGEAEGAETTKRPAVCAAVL
# UniProt P07333, whole entry: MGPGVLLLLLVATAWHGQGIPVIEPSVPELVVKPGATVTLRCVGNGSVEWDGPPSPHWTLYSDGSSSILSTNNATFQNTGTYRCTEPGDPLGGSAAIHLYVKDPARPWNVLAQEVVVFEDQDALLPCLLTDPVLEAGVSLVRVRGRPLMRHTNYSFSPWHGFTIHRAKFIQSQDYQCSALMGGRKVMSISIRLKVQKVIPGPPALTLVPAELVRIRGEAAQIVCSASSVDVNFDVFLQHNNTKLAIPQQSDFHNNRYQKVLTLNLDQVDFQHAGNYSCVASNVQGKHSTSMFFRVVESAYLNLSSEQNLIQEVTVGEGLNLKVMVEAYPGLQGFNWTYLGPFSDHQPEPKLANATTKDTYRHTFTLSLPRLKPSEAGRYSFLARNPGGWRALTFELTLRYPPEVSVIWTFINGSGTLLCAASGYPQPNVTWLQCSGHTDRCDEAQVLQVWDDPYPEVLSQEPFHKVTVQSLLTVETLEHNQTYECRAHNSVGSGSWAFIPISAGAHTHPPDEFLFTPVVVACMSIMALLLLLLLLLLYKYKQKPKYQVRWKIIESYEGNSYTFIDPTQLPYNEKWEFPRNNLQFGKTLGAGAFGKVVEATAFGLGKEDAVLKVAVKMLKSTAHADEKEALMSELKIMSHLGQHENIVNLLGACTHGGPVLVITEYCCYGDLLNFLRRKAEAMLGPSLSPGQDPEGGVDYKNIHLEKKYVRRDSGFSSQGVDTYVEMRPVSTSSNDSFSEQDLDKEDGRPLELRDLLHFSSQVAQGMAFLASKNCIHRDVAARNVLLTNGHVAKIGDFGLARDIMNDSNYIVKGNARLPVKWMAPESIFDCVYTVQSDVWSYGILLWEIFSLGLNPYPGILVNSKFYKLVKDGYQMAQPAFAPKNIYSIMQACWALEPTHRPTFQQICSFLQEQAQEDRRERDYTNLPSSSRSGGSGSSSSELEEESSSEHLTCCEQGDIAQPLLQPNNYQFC
# UniProt P41240: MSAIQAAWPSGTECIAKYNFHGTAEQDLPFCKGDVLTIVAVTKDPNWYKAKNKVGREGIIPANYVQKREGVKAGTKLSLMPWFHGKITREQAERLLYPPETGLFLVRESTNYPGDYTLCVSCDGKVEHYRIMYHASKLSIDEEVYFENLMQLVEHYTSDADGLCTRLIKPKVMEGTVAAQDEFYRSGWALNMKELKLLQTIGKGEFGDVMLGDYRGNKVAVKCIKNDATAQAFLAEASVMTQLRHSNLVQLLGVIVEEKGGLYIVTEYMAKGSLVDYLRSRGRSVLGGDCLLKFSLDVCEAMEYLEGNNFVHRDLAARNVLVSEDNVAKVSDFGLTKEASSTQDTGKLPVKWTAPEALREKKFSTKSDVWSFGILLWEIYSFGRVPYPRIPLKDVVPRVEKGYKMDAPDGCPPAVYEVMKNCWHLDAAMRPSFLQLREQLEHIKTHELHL
# UniProt P48729: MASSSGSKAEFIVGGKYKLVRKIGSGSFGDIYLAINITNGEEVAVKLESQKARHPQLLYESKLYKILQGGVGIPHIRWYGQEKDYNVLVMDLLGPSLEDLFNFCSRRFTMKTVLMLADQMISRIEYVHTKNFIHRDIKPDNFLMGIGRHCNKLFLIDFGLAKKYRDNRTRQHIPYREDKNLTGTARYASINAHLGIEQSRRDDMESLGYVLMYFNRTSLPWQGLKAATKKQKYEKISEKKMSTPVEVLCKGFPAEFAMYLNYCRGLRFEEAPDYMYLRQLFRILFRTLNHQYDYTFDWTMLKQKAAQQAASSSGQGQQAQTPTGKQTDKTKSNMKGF
# UniProt P48730: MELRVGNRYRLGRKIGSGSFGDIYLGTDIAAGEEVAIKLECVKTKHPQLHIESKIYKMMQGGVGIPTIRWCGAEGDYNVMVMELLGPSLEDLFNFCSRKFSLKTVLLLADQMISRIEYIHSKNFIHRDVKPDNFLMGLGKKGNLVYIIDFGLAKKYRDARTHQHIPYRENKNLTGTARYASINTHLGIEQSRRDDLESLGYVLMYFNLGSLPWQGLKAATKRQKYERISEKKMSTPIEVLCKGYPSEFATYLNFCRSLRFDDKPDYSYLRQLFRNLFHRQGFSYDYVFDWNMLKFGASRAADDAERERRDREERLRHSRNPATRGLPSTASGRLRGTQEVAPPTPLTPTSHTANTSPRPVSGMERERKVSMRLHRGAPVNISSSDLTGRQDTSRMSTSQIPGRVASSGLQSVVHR
# UniProt Q9Y463, whole entry, looked up: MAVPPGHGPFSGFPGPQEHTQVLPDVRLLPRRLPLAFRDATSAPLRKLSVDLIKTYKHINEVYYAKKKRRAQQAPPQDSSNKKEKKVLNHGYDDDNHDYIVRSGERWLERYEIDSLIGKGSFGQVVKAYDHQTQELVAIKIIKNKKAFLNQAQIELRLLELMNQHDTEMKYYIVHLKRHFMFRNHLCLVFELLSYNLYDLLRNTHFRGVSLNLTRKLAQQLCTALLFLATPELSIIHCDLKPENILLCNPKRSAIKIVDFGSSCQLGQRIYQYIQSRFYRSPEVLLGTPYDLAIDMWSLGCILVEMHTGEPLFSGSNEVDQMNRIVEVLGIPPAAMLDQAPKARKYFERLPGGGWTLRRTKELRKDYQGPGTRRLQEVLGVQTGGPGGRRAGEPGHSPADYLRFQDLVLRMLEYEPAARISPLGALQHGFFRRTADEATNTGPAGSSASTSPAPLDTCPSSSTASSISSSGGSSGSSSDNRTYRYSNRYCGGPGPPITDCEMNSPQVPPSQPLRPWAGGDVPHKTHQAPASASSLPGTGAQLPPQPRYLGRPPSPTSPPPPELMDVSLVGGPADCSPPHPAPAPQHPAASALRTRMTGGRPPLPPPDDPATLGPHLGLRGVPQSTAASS
# Counter-ions that a name gives are not always drawn. This is one part of the list. The calls rarely recur for the same compound in another form.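 Kinases were expressed as nanoluciferase fusions in K562 cells and luminescence was read every 4 h between 2 and 18 h as percent of control, DMSO set to 100% and a positive control to 0%. A time point counts as decreased when the signal drops significantly (2 sigma). The hit call is the authors' own, does not follow from the count of time points alone, and its rule is not shown.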
# Experiments:
# Experiment in all cases: kinase-Nluc reporter destabilization hit call (1 = scored as downregulated) (binary); higher = compound decreases kinase abundance
# Conditions in all cases: K562; 2-18 h
# BRAF_V600E = test system: BRAF_V600E
# BTK = BTK (UniProt Q06187)
# CAMK2A = CAMK2A (UniProt Q9UQM7)
# CAMK2G = CAMK2G (UniProt Q13555)
# CDK10 = CDK10 (UniProt Q15131)
# CDK2 = CDK2 (UniProt P24941)
# CDK3 = CDK3 (UniProt Q00526)
# CDK4 = CDK4 (UniProt P11802)
# CDK5 = CDK5 (UniProt Q00535)
# CDK6 = CDK6 (UniProt Q00534)
# CDK7 = CDK7 (UniProt P50613)
# CDK9 = CDK9 (UniProt P50750)
# CHEK2 = CHEK2 (UniProt O96017)
# CSF1R = CSF1R (UniProt P07333)
# CSK = CSK (UniProt P41240)
# CSNK1A1 = CSNK1A1 (UniProt P48729)
# CSNK1D = CSNK1D (UniProt P48730)
# DDR1 = DDR1 (UniProt Q08345)
# DYRK1B = DYRK1B (UniProt Q9Y463)
# DYRK2 = DYRK2 (UniProt Q92630)
Compound,kinase-Nluc reporter destabilization hit call (BRAF_V600E),kinase-Nluc reporter destabilization hit call (BTK),kinase-Nluc reporter destabilization hit call (CAMK2A),kinase-Nluc reporter destabilization hit call (CAMK2G),kinase-Nluc reporter destabilization hit call (CDK10),kinase-Nluc reporter destabilization hit call (CDK2),kinase-Nluc reporter destabilization hit call (CDK3),kinase-Nluc reporter destabilization hit call (CDK4),kinase-Nluc reporter destabilization hit call (CDK5),kinase-Nluc reporter destabilization hit call (CDK6),kinase-Nluc reporter destabilization hit call (CDK7),kinase-Nluc reporter destabilization hit call (CDK9),kinase-Nluc reporter destabilization hit call (CHEK2),kinase-Nluc reporter destabilization hit call (CSF1R),kinase-Nluc reporter destabilization hit call (CSK),kinase-Nluc reporter destabilization hit call (CSNK1A1),kinase-Nluc reporter destabilization hit call (CSNK1D),kinase-Nluc reporter destabilization hit call (DDR1),kinase-Nluc reporter destabilization hit call (DYRK1B),kinase-Nluc reporter destabilization hit call (DYRK2)
NC(=O)N1CCC(CC(=O)N2CCC([C@H]3c4ncc(Br)cc4CCc4cc(Cl)cc(Br)c43)CC2)CC1 [Lonafarnib] (2.5 µM),inactive: 0,inactive: 0,inactive: 0,inactive: 0,inactive: 0,inactive: 0,inactive: 0,inactive: 0,inactive: 0,inactive: 0,inactive: 0,inactive: 0,inactive: 0,inactive: 0,inactive: 0,inactive: 0,inactive: 0,inactive: 0,inactive: 0,inactive: 0
COc1cc(/C=C/C(=O)N2CCC=CC2=O)cc(OC)c1OC [Piperlongumine] (2.5 µM),active: 1,inactive: 0,inactive: 0,inactive: 0,inactive: 0,inactive: 0,inactive: 0,inactive: 0,inactive: 0,inactive: 0,inactive: 0,inactive: 0,inactive: 0,inactive: 0,inactive: 0,inactive: 0,inactive: 0,inactive: 0,inactive: 0,inactive: 0
O[C@@H]1CO[C@H]2[C@@H]1OC[C@H]2Oc1nc2nc(-c3ccc(-c4ccccc4)cc3)c(Cl)cc2[nH]1 (10 µM),inactive: 0,inactive: 0,inactive: 0,inactive: 0,inactive: 0,inactive: 0,inactive: 0,inactive: 0,inactive: 0,inactive: 0,inactive: 0,inactive: 0,inactive: 0,inactive: 0,inactive: 0,inactive: 0,inactive: 0,inactive: 0,inactive: 0,inactive: 0
N#CC(c1ccnc(OCc2ccc(CN3CCOCC3)cc2)n1)c1nc2ccccc2s1 (stereo not given) [Bentamapimod] (2.5 µM),inactive: 0,inactive: 0,inactive: 0,inactive: 0,inactive: 0,inactive: 0,inactive: 0,inactive: 0,inactive: 0,inactive: 0,inactive: 0,inactive: 0,inactive: 0,inactive: 0,inactive: 0,inactive: 0,inactive: 0,inactive: 0,inactive: 0,inactive: 0
CN1C(=O)[C@@H](NC(=O)c2n[nH]c(Cc3ccccc3)n2)COc2ccccc21 (10 µM),inactive: 0,inactive: 0,inactive: 0,inactive: 0,inactive: 0,inactive: 0,inactive: 0,inactive: 0,inactive: 0,inactive: 0,inactive: 0,inactive: 0,inactive: 0,inactive: 0,inactive: 0,inactive: 0,inactive: 0,inactive: 0,inactive: 0,inactive: 0
Oc1cc(O)c2c(c1)OC1(c3ccc(O)c(O)c3)Oc3cc(O)c4c(c3C2C1O)OC(c1ccc(O)c(O)c1)C(O)C4 (stereo not given) [Procyanidin A1] (10 µM),inactive: 0,inactive: 0,inactive: 0,inactive: 0,inactive: 0,inactive: 0,inactive: 0,inactive: 0,inactive: 0,inactive: 0,inactive: 0,inactive: 0,inactive: 0,inactive: 0,inactive: 0,inactive: 0,inactive: 0,inactive: 0,inactive: 0,inactive: 0
Cc1cc(Nc2nc(CC3(C(=O)O)CCN(C(=O)c4cccc(Cl)c4Cl)CC3)ccc2F)n[nH]1 (10 µM),inactive: 0,inactive: 0,inactive: 0,inactive: 0,inactive: 0,inactive: 0,inactive: 0,inactive: 0,inactive: 0,inactive: 0,inactive: 0,inactive: 0,inactive: 0,inactive: 0,inactive: 0,inactive: 0,inactive: 0,inactive: 0,inactive: 0,inactive: 0
COc1ccc(-c2coc3cc(O)ccc3c2=O)cc1 [Formononetin] (10 µM),inactive: 0,inactive: 0,inactive: 0,inactive: 0,inactive: 0,inactive: 0,inactive: 0,inactive: 0,inactive: 0,inactive: 0,inactive: 0,inactive: 0,inactive: 0,inactive: 0,inactive: 0,inactive: 0,inactive: 0,inactive: 0,inactive: 0,inactive: 0
CCCCCCCC/C=C\CCCCCCCCCCCC(=O)O [Erucic acid] (10 µM),inactive: 0,inactive: 0,inactive: 0,inactive: 0,inactive: 0,inactive: 0,inactive: 0,inactive: 0,inactive: 0,inactive: 0,inactive: 0,inactive: 0,inactive: 0,inactive: 0,inactive: 0,inactive: 0,inactive: 0,inactive: 0,inactive: 0,inactive: 0
O=C(NCc1cccc(O)c1)Nc1nc(-c2ccncc2)cs1 (10 µM),inactive: 0,inactive: 0,inactive: 0,inactive: 0,inactive: 0,inactive: 0,inactive: 0,inactive: 0,inactive: 0,inactive: 0,inactive: 0,inactive: 0,inactive: 0,inactive: 0,inactive: 0,inactive: 0,inactive: 0,inactive: 0,inactive: 0,inactive: 0
C=CC(=O)Nc1cccc(-c2cccc3cnc(Nc4ccc(N5CCN(CCO)CC5)c(F)c4F)nc23)c1 [Olafertinib] (2.5 µM),inactive: 0,inactive: 0,inactive: 0,inactive: 0,inactive: 0,inactive: 0,inactive: 0,inactive: 0,inactive: 0,inactive: 0,inactive: 0,inactive: 0,inactive: 0,inactive: 0,inactive: 0,inactive: 0,inactive: 0,inactive: 0,inactive: 0,inactive: 0
Cc1ccc(NC(=O)c2ccc(CN(CCN(C)C)C(=O)c3cccnc3)cc2)cc1Nc1nccc(-c2cccnc2)n1 [PDGFRα kinase inhibitor 1] (10 µM),inactive: 0,inactive: 0,inactive: 0,inactive: 0,inactive: 0,inactive: 0,inactive: 0,inactive: 0,inactive: 0,inactive: 0,inactive: 0,inactive: 0,inactive: 0,inactive: 0,inactive: 0,inactive: 0,inactive: 0,inactive: 0,inactive: 0,inactive: 0
Cc1cc(C)nc(NS(=O)(=O)c2ccc(NC(=S)NC(=O)COc3ccc(Br)cc3Cl)cc2)n1 (2.5 µM),inactive: 0,inactive: 0,inactive: 0,inactive: 0,inactive: 0,inactive: 0,inactive: 0,inactive: 0,inactive: 0,inactive: 0,inactive: 0,inactive: 0,inactive: 0,inactive: 0,inactive: 0,inactive: 0,inactive: 0,inactive: 0,inactive: 0,inactive: 0
O=[N+]([O-])c1ccc(Nc2nc(N3CCOCC3)nc(N3CCOCC3)n2)cc1 (10 µM),inactive: 0,inactive: 0,inactive: 0,inactive: 0,inactive: 0,inactive: 0,inactive: 0,inactive: 0,inactive: 0,inactive: 0,inactive: 0,inactive: 0,inactive: 0,inactive: 0,inactive: 0,inactive: 0,inactive: 0,inactive: 0,inactive: 0,inactive: 0
CN1CC[C@@H](c2c(O)cc(O)c3c(=O)cc(-c4ccc(C(F)(F)F)cc4Cl)oc23)[C@@H]1CO [Voruciclib (hydrochloride)] (10 µM),inactive: 0,inactive: 0,inactive: 0,inactive: 0,inactive: 0,inactive: 0,inactive: 0,inactive: 0,inactive: 0,inactive: 0,inactive: 0,inactive: 0,inactive: 0,inactive: 0,inactive: 0,inactive: 0,inactive: 0,inactive: 0,inactive: 0,inactive: 0
COc1ccc(S(=O)(=O)NCc2ccc(C(=O)NCCc3ccc(Cl)cn3)cc2)cc1 (10 µM),inactive: 0,inactive: 0,inactive: 0,inactive: 0,inactive: 0,inactive: 0,inactive: 0,inactive: 0,inactive: 0,inactive: 0,inactive: 0,inactive: 0,inactive: 0,inactive: 0,inactive: 0,inactive: 0,inactive: 0,inactive: 0,inactive: 0,inactive: 0

# A different layout for 2 compounds above.
Compound | kinase-Nluc reporter destabilization hit call (BRAF_V600E) | kinase-Nluc reporter destabilization hit call (BTK) | kinase-Nluc reporter destabilization hit call (CAMK2A) | kinase-Nluc reporter destabilization hit call (CAMK2G) | kinase-Nluc reporter destabilization hit call (CDK10) | kinase-Nluc reporter destabilization hit call (CDK2) | kinase-Nluc reporter destabilization hit call (CDK3) | kinase-Nluc reporter destabilization hit call (CDK4) | kinase-Nluc reporter destabilization hit call (CDK5) | kinase-Nluc reporter destabilization hit call (CDK6) | kinase-Nluc reporter destabilization hit call (CDK7) | kinase-Nluc reporter destabilization hit call (CDK9) | kinase-Nluc reporter destabilization hit call (CHEK2) | kinase-Nluc reporter destabilization hit call (CSF1R) | kinase-Nluc reporter destabilization hit call (CSK) | kinase-Nluc reporter destabilization hit call (CSNK1A1) | kinase-Nluc reporter destabilization hit call (CSNK1D) | kinase-Nluc reporter destabilization hit call (DDR1) | kinase-Nluc reporter destabilization hit call (DYRK1B) | kinase-Nluc reporter destabilization hit call (DYRK2)
CCCCCCCC/C=C\CCCCCCCCCCCC(=O)O [Erucic acid] (10 µM) | inactive: 0 | inactive: 0 | inactive: 0 | inactive: 0 | inactive: 0 | inactive: 0 | inactive: 0 | inactive: 0 | inactive: 0 | inactive: 0 | inactive: 0 | inactive: 0 | inactive: 0 | inactive: 0 | inactive: 0 | inactive: 0 | inactive: 0 | inactive: 0 | inactive: 0 | inactive: 0
O=C(NCc1cccc(O)c1)Nc1nc(-c2ccncc2)cs1 (10 µM) | inactive: 0 | inactive: 0 | inactive: 0 | inactive: 0 | inactive: 0 | inactive: 0 | inactive: 0 | inactive: 0 | inactive: 0 | inactive: 0 | inactive: 0 | inactive: 0 | inactive: 0 | inactive: 0 | inactive: 0 | inactive: 0 | inactive: 0 | inactive: 0 | inactive: 0 | inactive: 0
